The source of these data is patent US20220348923.

The target in this data set is Human serum albumin (HSA) (Homo sapiens) (UniProt P02768). Kind of data set: ELONA. To be noted: 2'-F pyrimidines; no binding detected at 10-1000 nM, 25 nM HSA coating; purified native protein; label: 3'-biotin via C6-amino linker (ELONA).

The term Kd denotes the equilibrium constant for the complex coming apart. Low readings indicate a tighter complex, high ones a looser complex. Take UUCGUGCCGCUGAGUGCGUACGGGC [SAM-1.T1]: the Kd was greater than 1 µM.

UCGAAUGAACCAAGGUUCCUCGGC [SAM-2.T1] returned a Kd greater than 1 µM.
